The target of data set [1] is EcoRV restriction endonuclease (UniProt P04390). The data set is described as follows: EMSA. As to conditions: selectivity control, 1x NEBuffer 1, room temperature; purified recombinant protein; protein details: New England Biolabs; single-stranded DNA. For orientation: In EMSA bound probe runs differently from free probe, usually more slowly.
The target in data set [2] is bovine serum albumin (BSA) (Bos taurus) (UniProt P02769). As to the kind of experiment: EMSA. As to conditions: selectivity control, 1x NEBuffer 1, room temperature; purified native protein; protein details: New England Biolabs; single-stranded DNA.

Amino acid sequences for entries named in this document (tags omitted). Residues count along the entry.
UniProt P04390, 2-245: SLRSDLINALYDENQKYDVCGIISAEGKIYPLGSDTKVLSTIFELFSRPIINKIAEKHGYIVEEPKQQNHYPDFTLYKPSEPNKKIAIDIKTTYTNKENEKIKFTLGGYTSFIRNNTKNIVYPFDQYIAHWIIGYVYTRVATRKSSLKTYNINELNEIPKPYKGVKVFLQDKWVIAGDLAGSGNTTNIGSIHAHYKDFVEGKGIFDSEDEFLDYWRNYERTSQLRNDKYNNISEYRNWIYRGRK
UniProt P02769, 25-607: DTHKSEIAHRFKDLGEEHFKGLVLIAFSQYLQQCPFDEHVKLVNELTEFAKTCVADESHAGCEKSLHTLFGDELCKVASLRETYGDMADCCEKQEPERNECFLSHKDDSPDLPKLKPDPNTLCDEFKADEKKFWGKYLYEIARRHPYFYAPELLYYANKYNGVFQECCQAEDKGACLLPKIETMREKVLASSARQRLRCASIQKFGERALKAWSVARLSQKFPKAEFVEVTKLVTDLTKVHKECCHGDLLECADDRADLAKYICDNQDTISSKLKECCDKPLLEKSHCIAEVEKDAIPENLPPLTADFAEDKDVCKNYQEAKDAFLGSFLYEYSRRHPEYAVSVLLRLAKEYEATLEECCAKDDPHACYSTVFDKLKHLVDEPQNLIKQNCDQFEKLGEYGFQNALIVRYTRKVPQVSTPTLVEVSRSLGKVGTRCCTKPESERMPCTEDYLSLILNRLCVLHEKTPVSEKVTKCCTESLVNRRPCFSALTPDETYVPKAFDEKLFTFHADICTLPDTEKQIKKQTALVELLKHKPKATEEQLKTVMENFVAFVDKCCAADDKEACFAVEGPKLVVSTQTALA

Construct, isoform or probe ends are uncertain for at least one entry. A negative result means that nothing was seen under these conditions.

Take “CAAGGCCTCTCCTGATCCGACGAGCAAGTAGCTCCAAGACGAGTTCAACCCCAGAATCAGGTCGGGAGCTGAAGCTGCTT [aptamer 3 (full length, asymmetric PCR product)]”: the binding result in data set [1] and in data set [2] was “no binding” in each case.

These data come from patent publication US20100291561.
